Experimental data taken from the supplement of paper PMC8551327.
Where a name gives a salt, the structure may show the parent alone. This is one part of the list. No stated cut-off is given here; in the data, active = 1.25 or more and inactive = the rest. Most values come without repeats; read them as rough.

What follows are compounds tested on Kcc2-LUC knock-in mouse primary cortical neurons (Kcc2 promoter reporter) (assay: Kcc2 promoter-driven luciferase activity relative to vehicle control (fold of vehicle (ratio)); higher = stronger Kcc2 promoter activation (Kcc2 expression enhancer)). Conditions: 100 nM; 48 h.

| SMILES | Kcc2 promoter-driven luciferase activity |
| --- | --- |
| C=C[C@H]1CN2CC[C@H]1C[C@@H]2[C@@H](O)c1ccnc2ccccc12 [Cinchonine] | active: 1.34 |
| Cc1c(N)nc([C@H](CC(N)=O)NC[C@H](N)C(N)=O)nc1C(=O)N[C@H](C(=O)N[C@H](C)[C@@H](O)[C@H](C)C(=O)N[C@H](C(=O)NCCc1nc(-c2nc(C(=O)NCCC[S+](C)C)cs2)cs1)[C@@H](C)O)[C@@H](OC1OC(CO)C(O)C(O)C1OC1OC(CO)C(O)C(OC(N)=O)C1O)c1cnc[nH]1 (some centres undefined) [Bleomycin sulfate] | inactive: 1.22 |
| COc1ccc(C2C=C(c3ccc4c(c3)OCO4)Oc3c2c(=O)oc2ccccc32)cc1OC (centres undefined) | inactive: 0.8 |
| CC[C@@]1(O)C[C@H](O[C@H]2C[C@H](N(C)C)[C@H](O[C@H]3C[C@@H]4O[C@H]5CC(=O)[C@H](C)O[C@H]5O[C@@H]4[C@H](C)O3)[C@H](C)O2)c2c(cc3c(c2O)C(=O)c2c(O)ccc(O)c2C3=O)[C@H]1C(=O)OC [Cinerubin B hcl] | active: 1.28 |
